Test results published in paper PMC4105463.
These are yes or no findings as the source states them, for the method shown. For some of these results: Binding seen in cells or lysates may run through a third protein. Some results given as binding are weak or reduced against the parent protein; the word gives no strength. For some of these results: Tags and fused reporters may be left off the sequences shown.

T1: stefin B G4R mutant fused to a half of the yellow fluorescent protein (human) (UniProt P04080)
T1 sequence: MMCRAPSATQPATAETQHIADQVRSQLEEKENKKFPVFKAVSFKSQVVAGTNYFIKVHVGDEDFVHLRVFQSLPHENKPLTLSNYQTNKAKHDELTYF


Experiments:
[1] = biological target: T1, stefin B G4R mutant fused to a half of the yellow fluorescent protein (human); experiment: split reporter; split YFP halves (NYFP, CYFP) on the C-terminus of each protein, co-transfected in HEK293 cells, live adherent cells imaged by confocal microscopy (488 nm)
[2] = biological target: stefin B wild type (C3E31) fused to a half of the yellow fluorescent protein (human) (UniProt P04080); experiment: as above
[3] = biological target: recombinant stefin B wild type (Ser at position 3 instead of Cys) (human) (UniProt P04080); experiment: SEC; Superdex 75 column, 0.01 M phosphate buffer, 0.12 M NaCl, pH 6.1; both purified

binding [1] | binding [2] | binding [3] | Binder
binds | binds | – | stefin B wild type (C3E31) fused to a half of the yellow fluorescent protein (protein, UniProt P04080 1-98) MMCGAPSATQPATAETQHIADQVRSQLEEKENKKFPVFKAVSFKSQVVAGTNYFIKVHVGDEDFVHLRVFQSLPHENKPLTLSNYQTNKAKHDELTYF
binds | – | – | stefin B G4R mutant fused to a half of the yellow fluorescent protein (protein, UniProt P04080 1-98) MMCRAPSATQPATAETQHIADQVRSQLEEKENKKFPVFKAVSFKSQVVAGTNYFIKVHVGDEDFVHLRVFQSLPHENKPLTLSNYQTNKAKHDELTYF
– | – | binds | recombinant stefin B wild type (Ser at position 3 instead of Cys) (protein, UniProt P04080 1-98) MMSGAPSATQPATAETQHIADQVRSQLEEKENKKFPVFKAVSFKSQVVAGTNYFIKVHVGDEDFVHLRVFQSLPHENKPLTLSNYQTNKAKHDELTYF
